Experimental findings from patent US6566080 (NEW ENGLAND MEDICAL CENTER HOSPITALS, dated 2003) are described below.

Protein sequences, listed by entry. Tags and fused reporters are not part of them. Lines headed by an entry give the natural chain unless they say otherwise; changes in a name come on top.
UniProt P01350: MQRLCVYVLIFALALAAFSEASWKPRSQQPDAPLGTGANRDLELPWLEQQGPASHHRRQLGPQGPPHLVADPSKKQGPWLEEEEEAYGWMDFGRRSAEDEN

These are yes or no findings as the source states them, for the method shown. Some entries that bind do so weakly or less than the wild type.

This test deals with T1, wild-type human CCK-B/gastrin receptor (human, UniProt P32239 1-447).
T1 sequence: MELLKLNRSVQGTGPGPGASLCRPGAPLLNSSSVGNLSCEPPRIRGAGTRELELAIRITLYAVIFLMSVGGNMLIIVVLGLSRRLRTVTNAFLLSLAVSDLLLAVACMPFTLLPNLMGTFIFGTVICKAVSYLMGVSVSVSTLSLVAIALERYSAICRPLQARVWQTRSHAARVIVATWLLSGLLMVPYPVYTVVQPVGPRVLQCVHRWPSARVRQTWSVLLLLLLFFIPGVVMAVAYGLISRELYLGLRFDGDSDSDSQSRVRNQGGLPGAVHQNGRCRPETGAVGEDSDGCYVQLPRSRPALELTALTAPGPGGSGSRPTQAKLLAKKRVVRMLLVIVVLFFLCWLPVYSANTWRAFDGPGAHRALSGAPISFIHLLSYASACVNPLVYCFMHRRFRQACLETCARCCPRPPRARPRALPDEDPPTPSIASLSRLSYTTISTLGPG
Kind of test: ^125I-CCK-8 competition binding on stably transfected CHO cells.

With QGPWLEEEEEAYGWMDF (peptide, UniProt P01350 76-92, looked up) [Gastrin I (unsulphated gastrin-17)], the binding entry is “binds”.
